Results are given in words; binding and its absence hold for the method and conditions named. In cells and extracts the contact can be indirect. Some binding calls cover weakened binding; strength is not graded here.
Biological target: T1, integrin β5 (mouse (endogenous in RAW 264.7)) (UniProt O70309)
T1 sequence: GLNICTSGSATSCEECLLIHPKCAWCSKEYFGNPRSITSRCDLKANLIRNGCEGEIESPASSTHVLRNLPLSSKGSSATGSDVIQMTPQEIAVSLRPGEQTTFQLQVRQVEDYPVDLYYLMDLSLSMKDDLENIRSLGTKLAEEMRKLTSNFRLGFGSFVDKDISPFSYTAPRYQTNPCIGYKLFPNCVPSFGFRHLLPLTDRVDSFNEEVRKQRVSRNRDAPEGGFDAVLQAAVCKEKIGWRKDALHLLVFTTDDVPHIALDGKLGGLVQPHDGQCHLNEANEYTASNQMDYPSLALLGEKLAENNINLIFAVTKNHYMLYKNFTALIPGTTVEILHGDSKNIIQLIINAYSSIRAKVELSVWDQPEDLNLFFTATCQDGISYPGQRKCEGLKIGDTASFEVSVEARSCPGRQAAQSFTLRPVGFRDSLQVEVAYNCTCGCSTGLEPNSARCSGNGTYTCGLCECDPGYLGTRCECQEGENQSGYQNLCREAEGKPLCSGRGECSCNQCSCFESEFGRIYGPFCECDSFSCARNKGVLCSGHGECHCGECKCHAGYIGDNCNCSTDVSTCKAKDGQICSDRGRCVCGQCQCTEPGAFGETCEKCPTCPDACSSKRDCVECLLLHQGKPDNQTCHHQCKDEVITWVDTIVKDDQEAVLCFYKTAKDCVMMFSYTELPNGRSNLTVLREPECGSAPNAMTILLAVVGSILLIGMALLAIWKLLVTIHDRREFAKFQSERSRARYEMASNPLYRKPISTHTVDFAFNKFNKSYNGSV
Assay: co-IP; RAW 264.7 cells lysed with NP-40 lysis buffer with phosphatase and protease inhibitors; lysates incubated overnight with individual antibody and protein A/G beads, washed four times with lysis buffer, SDS-PAGE and immunoblotting

Chains of the proteins cited; added tags and fusions are not shown. Residues count along the entry.
UniProt P02469, residues 22-1786: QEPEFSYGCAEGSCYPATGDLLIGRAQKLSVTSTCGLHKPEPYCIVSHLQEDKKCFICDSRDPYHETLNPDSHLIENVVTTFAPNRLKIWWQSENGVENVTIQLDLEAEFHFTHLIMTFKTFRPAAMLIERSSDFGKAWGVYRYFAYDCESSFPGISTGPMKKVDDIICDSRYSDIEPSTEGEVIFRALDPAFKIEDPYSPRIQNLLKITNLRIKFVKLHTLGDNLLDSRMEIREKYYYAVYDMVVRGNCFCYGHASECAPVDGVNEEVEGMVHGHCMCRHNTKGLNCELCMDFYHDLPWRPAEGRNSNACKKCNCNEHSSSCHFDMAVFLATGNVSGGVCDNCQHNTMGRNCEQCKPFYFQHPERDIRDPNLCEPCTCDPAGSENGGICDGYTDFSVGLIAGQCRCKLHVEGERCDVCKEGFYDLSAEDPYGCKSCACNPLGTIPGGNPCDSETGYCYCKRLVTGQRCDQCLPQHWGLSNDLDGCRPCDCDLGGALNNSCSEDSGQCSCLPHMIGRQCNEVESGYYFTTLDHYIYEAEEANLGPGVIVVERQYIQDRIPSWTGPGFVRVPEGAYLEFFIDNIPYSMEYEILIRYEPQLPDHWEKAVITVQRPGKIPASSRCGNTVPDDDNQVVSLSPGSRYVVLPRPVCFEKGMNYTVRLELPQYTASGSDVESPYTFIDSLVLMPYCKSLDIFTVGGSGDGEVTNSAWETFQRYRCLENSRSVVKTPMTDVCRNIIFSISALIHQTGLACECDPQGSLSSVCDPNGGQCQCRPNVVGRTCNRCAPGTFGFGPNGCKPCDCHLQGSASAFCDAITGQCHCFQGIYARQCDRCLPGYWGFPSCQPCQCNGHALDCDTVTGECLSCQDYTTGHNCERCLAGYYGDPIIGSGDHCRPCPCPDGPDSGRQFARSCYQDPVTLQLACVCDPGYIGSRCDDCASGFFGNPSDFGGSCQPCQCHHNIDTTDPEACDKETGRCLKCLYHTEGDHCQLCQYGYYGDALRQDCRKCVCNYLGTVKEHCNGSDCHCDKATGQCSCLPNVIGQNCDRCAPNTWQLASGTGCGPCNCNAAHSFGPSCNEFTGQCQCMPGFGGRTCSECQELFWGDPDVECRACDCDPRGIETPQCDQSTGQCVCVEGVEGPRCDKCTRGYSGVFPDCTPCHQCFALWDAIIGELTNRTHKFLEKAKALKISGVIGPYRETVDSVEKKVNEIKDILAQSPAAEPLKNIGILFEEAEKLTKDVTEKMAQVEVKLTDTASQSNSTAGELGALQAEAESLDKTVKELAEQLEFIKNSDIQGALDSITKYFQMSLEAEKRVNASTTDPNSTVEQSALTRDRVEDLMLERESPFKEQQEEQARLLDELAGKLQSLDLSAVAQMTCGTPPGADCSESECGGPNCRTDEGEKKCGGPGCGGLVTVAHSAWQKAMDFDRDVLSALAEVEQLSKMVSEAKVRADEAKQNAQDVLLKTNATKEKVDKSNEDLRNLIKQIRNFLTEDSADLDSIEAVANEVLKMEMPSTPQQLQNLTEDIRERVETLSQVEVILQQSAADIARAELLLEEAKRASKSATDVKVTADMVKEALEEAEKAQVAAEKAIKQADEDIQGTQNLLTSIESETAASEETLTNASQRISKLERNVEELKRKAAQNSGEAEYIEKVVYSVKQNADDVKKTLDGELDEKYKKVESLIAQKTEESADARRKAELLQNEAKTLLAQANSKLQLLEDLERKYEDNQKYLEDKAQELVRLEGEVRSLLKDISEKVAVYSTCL
UniProt P02468, residues 34-1607: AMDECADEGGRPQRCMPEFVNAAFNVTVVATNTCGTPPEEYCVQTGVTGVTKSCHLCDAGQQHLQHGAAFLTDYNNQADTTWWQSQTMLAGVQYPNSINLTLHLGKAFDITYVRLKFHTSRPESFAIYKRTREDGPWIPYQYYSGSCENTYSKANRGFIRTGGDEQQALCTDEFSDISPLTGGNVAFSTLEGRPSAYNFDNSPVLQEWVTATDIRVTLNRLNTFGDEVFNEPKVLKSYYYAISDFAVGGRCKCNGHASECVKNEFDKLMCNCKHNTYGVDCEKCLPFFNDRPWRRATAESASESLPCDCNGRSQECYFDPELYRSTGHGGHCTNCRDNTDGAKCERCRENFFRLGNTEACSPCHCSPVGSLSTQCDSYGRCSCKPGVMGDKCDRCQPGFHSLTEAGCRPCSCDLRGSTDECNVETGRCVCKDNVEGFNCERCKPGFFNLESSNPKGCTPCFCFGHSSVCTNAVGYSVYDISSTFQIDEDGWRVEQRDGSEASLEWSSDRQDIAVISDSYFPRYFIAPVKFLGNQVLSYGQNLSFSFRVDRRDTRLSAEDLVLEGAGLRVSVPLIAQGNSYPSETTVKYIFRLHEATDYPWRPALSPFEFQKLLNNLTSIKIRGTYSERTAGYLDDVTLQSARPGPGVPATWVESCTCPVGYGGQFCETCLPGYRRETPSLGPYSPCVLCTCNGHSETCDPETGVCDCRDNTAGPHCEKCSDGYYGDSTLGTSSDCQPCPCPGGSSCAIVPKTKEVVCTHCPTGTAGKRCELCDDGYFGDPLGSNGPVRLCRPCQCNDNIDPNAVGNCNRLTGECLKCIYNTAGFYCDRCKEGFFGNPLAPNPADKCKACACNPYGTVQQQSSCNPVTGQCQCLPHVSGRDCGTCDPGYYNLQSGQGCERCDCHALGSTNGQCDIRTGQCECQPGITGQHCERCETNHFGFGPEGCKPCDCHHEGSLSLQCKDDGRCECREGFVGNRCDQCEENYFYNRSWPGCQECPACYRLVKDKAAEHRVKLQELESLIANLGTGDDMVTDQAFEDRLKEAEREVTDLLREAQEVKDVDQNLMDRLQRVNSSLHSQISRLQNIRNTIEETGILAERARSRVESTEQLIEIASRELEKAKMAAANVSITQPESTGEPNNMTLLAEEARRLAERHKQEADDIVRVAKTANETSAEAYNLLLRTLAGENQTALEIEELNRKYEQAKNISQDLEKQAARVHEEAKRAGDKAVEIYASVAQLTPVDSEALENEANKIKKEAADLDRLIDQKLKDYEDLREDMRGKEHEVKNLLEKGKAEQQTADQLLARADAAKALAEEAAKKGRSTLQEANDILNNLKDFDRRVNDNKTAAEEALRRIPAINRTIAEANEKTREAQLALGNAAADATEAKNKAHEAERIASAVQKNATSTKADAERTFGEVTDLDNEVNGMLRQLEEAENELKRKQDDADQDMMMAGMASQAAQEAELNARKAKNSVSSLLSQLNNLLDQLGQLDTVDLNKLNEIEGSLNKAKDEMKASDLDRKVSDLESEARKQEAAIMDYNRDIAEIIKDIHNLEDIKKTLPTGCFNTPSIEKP

| binding | Substance |
| --- | --- |
| binds | LAMB1 (from UniProt P02469 22-1786) |
| binds | LAMC1 (from UniProt P02468 34-1607) |

— PMC9729302
